# Results as given in PubChem BioAssay AID743255 (National Center for Advancing Translational Sciences (NCATS), 2014).
# The chains behind the UniProt entries cited, without tags or fusion partners. Where a name states a change or a piece, a line headed by the entry shows the natural chain unless it says otherwise.
# UniProt O94782: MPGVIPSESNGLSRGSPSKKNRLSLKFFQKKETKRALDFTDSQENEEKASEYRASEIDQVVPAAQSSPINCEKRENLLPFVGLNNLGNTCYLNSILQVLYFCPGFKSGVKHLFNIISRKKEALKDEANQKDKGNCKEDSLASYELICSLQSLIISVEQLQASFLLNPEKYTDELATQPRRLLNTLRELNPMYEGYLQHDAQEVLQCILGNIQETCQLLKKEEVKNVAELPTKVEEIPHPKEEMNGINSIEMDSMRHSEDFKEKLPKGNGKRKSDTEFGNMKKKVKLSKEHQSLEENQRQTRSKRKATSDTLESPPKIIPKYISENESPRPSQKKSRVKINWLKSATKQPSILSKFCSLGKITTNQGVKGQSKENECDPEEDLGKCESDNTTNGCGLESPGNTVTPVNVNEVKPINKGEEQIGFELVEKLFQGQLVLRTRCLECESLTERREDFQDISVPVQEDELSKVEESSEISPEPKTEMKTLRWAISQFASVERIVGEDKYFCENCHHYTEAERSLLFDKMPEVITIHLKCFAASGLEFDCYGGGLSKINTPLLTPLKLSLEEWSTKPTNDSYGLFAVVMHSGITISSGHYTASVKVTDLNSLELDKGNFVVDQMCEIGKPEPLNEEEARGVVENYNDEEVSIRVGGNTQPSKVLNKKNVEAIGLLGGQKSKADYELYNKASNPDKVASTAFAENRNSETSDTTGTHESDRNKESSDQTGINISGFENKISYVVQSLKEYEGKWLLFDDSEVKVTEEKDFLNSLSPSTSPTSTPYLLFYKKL
# Where “and” joins values, the source holds several entries; their conditions need not be identical. Identical values can stand only once. Screen size: about 390,000 compounds; about 910 (0.23%) were called active. The shares of active, inactive and inconclusive entries below differ from those in the screen. Calls come from the whole dose curve; as a rule, active = well fitted inhibition curve with a large enough effect; inconclusive = small, poorly fitted or top-dose-only effect; inactive = no such curve, though single readings can be large or run the other way. A potency beside an inconclusive call is a rough fit, not a confirmed value.
# Target: Ubiquitin carboxyl-terminal hydrolase 1 (Homo sapiens) (UniProt O94782)
# Test: Inhibitors of USP1/UAF1: Primary Screen; note: nearly all actives have a fitted effect of over 60% in size
# Conditions: recombinant USP1/UAF1, Ub-Rhodamine cleavage fluorescence; activity change, negative = inhibition: at 57.1 µM (top of the series)
# Method in brief: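 In this screen, compounds sit with the deubiquitinase complex (1nM) for 15 min at room temperature before Ub-Rho is added at 150nM final. Fluorescence rise is then followed for 6 reads every 60 seconds.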
# % is set by controls: 0 for no effect and ±100 for the full control effect; potency is the fitted concentration of half-maximal effect.
Compound,Potency,"activity change, negative = inhibition"
CC(Nc1nc(-c2ccccc2F)nc2ccccc12)c1ccccc1 (centres undefined),"inconclusive: 35.5 µM [inhibitor, partial curve]",–
O=C(COC(=O)c1c2c(nc3ccccc13)/C(=C/c1ccco1)CC2)NC1CCCC1,–,inactive: -6.43%
COc1ccc(OC)c(NC(=O)Nc2cccc(Cn3cccn3)c2)c1,"inconclusive: 14.1 µM [inhibitor, partial curve]",–
CCc1cc2c(cc3c(=O)n(CC(=O)NCc4cc(Br)ccc4OC)ncn32)s1,"inconclusive: 0.708 µM [inhibitor, full curve, poor fit]",–
S=C(Nc1ccc2nsnc2c1)N1CCCCC1,"inconclusive: 50.1 µM [inhibitor, partial curve, poor fit]",–
CC(=O)Nc1nc(=S)ss1,–,inactive: -15.2%
O=c1cc(-c2ccccc2)nc2cc(-c3ccc(Br)cc3)[nH]n12,–,inactive: -10%
Cc1ccc(-c2nn(-c3ccccc3)cc2CNCc2ccccc2)cc1,"inconclusive: 35.5 µM [inhibitor, partial curve, poor fit]",–
Cn1cccc1-c1cc2n(n1)CCC(=O)N2CCCC(=O)NCc1ccc(F)cc1,"inconclusive: 100 µM [inhibitor, partial curve, poor fit]",–
Cc1[nH]n(-c2ccc([N+](=O)[O-])cc2)c(=O)c1/C=N/N1CCOCC1,–,inconclusive: -17% [inhibitor]
CCC[C@@H]1CCCC/C=C\CCCC(=O)OCCN1C(=O)OC(C)(C)C,"inconclusive: 5.62 µM [inhibitor, partial curve]",–
Cc1sc(NC(=O)CSc2nc(N)cc(N)n2)c(C#N)c1C,"inconclusive: 39.8 µM [inhibitor, partial curve]",–
COC(=O)c1ccccc1NC(=O)NCc1ccncc1,–,inactive: -21.1%
C(=N\Nc1nc(Nc2ccccc2)nc(Nc2ccccc2)n1)/c1ccncc1,"inconclusive: 0.251 µM [inhibitor, full curve, poor fit]",–
Cc1ccsc1C1C=C(c2cccc(Br)c2)Nc2ncnn21 (centres undefined),"inconclusive: 35.5 µM [inhibitor, partial curve]",–
CCCCn1c(NC(=O)c2ccco2)c(S(=O)(=O)c2ccc(C)cc2)c2nc3ccccc3nc21,"inconclusive: 35.5 µM [inhibitor, partial curve, poor fit]",–
O=c1/c(=C\c2cccnc2)sc2nc3ccccc3n12,–,inactive: -8.73%
CCN(CC)C(=O)CSc1nc2cc3c(cc2c(=O)n1Cc1ccc(OC)cc1)OCO3,"inconclusive: 44.7 µM [inhibitor, partial curve]",–
O=C(Nc1cc2ccc(O)cc2oc1=O)c1ccccc1,–,inactive: -15.8%
COc1ccc(/C=C2\CCn3c2nc2cc(C(=O)O)ccc2c3=O)cc1OC,"inconclusive: 39.8 µM [inhibitor, partial curve]",–
Cc1ccc(NC(=O)N2CCN(c3nnc(C)c4c(C)n(-c5ccc(Cl)cc5)nc34)CC2)c(C)c1,–,inactive: -19.5%
COc1ccc(NC(=O)c2cccnc2)cc1OCC(C)C,"inconclusive: 5.62 µM [inhibitor, partial curve]",–
CCOC(=O)c1cn(-c2nc(-c3ccc(Cl)c(Cl)c3)cs2)c2c(F)c(N3CCOCC3)c(F)cc2c1=O,–,inactive: -2.82%

Compound,Potency,"activity change, negative = inhibition"
COC(=O)c1ccccc1NC(=O)c1cc(C)nc2c1c(C)nn2-c1ccc(C)cc1,–,inactive: -25.8%
CCOc1ccc(CCNc2ccc3nnc(-c4ccccc4)n3n2)cc1OCC,"inconclusive: 5.01 µM [inhibitor, partial curve]",–
Cc1cc(C)c(NC(=S)NCCO)c(C)c1,–,inactive: -12.1%
Cc1ccc(C)c(Cn2c(=O)n(CCC(=O)NCc3ccc4c(c3)OCO4)c(=O)c3sccc32)c1,"inconclusive: 50.1 µM [inhibitor, partial curve]",–
CN(C)CCCN(C(=O)c1ccc(S(=O)(=O)N2CCc3ccccc3C2)cc1)c1nc2c(F)cccc2s1,–,inactive: -13.2%
C#Cc1ccc([C@@H]2C=C(C(=O)NC3CC3)O[C@H](OCCCCO)C2)cc1,"inconclusive: 35.5 µM [inhibitor, partial curve]",–
Cn1c(=O)c([N+](=O)[O-])c(NCCc2ccccc2)c2ccccc21,–,inactive: -8.9%
Fc1ccc2c(-c3cccc(C(F)(F)F)c3)c(-c3ccccc3)ncc2c1,"inconclusive: 35.5 µM [inhibitor, partial curve]",–
COc1ccc([N+](=O)[O-])cc1N(CC(O)CN(CC(C)C)CC(C)C)S(=O)(=O)c1ccccc1 (centres undefined),"inconclusive: 14.1 µM [inhibitor, partial curve]",–
COc1ccc(CN2CCC(C(=O)c3cccc(Cl)c3)CC2)cc1,–,inactive: -21.8%
COc1ccc(/C(N)=N/OC(=O)CN(C)S(=O)(=O)c2ccccc2)cc1,"inconclusive: 35.5 µM [inhibitor, partial curve, poor fit]",–
O=S(=O)(Nc1cc(Sc2ncn[nH]2)c(O)c2ccccc12)c1ccccc1,active: 2.24 µM,–
Cc1c(/C=C(\C#N)C(=O)Nc2cccc(Cl)c2)c2ccccc2n1Cc1ccccc1,"inconclusive: 0.708 µM [inhibitor, full curve, poor fit]",–
COC(=O)c1sc2cccc(F)c2c1S(=O)(=O)Nc1ccc(C)cc1Cl,–,inactive: -13.8%
C/C(CC(=O)Nc1ccc([N+](=O)[O-])cc1)=N\NC(=O)c1ccccc1O,–,inactive: -22.6%
COc1ccc(Oc2nccc(OC)c2C#N)cc1,"inconclusive: 0.501 µM [inhibitor, partial curve, poor fit]",–
Cc1ccccc1C1=CCN(c2ncc(NC(=O)c3ccc(Cl)cc3)cc2C(=O)O)CC1,"inconclusive: 35.5 µM [inhibitor, partial curve, poor fit]",–
COC(=O)Cn1c(C)nc2c(sc3nc(C)cc(C)c32)c1=O,–,inactive: -8.78%
Cc1ccc(-c2nc(NC(=O)CSc3ncn[nH]3)ns2)cc1,"inconclusive: 22.4 µM [inhibitor, partial curve, poor fit]",–
CCc1ccc(NC(=O)c2sc3nc4c(cc3c2N)CN(CC)CC4)cc1,"inconclusive: 22.4 µM [inhibitor, partial curve, poor fit]",–
Cc1ccc(/C=N/Nc2nc(N3CCCCC3)nc(N3CCCCC3)n2)o1,–,inactive: -8.65%
O=C(NC(=S)N1CCCCC1)c1csc([N+](=O)[O-])c1,"inconclusive: 39.8 µM [inhibitor, partial curve, poor fit]",–
CCOC(=O)c1c(C)[nH]c(C)c1S(=O)(=O)N1CCC(C(=O)N2CCN(c3cccc(C)c3C)CC2)CC1,"inconclusive: 3.55 µM [inhibitor, full curve, poor fit]",–

Compound,Potency,"activity change, negative = inhibition"
O=C(Nc1ccc(F)cc1)c1ccc(Cn2nc(N3CCN(c4ccccc4)CC3)ccc2=O)o1,"inconclusive: 1.78 µM [inhibitor, full curve]",–
CCC(C)(C)n1nnnc1C(c1cc2ccc(OC)cc2[nH]c1=O)N1CCc2ccccc2C1 (centres undefined),"inconclusive: 25.1 µM [inhibitor, partial curve]",–
COc1ccc(C2C(C(C)=O)=C(C)N=c3s/c(=C\c4cc(C)n(C)c4C)c(=O)n32)c(OC)c1 (centres undefined),active: 17.8 µM,–
CCC(CC)C(=O)Nc1c(C(=O)N2CCN(c3ccccc3)CC2)oc2ccccc12,"inconclusive: 22.4 µM [inhibitor, partial curve] and inconclusive: 28.2 µM [inhibitor, partial curve]",–
CN1CCN(CC(=O)N2N=C(c3cccs3)CC2c2ccco2)CC1 (centres undefined),–,inactive: -10%
Cc1cc(C)c2c(=O)cc(C(=O)Nc3nc4ccc(F)cc4s3)oc2c1,–,inactive: -4.96%
Cc1nc2scc(-c3ccc(C(C)C)cc3)c2c(=O)n1N,"inconclusive: 56.2 µM [inhibitor, partial curve, poor fit]",–
Brc1ccc2ncnc(Nc3cccc4ccccc34)c2c1,–,inactive: -24.1%
Cc1ccc(NC(=O)COC(=O)CNC(=O)c2cccs2)cc1S(=O)(=O)N1CCOCC1,–,inactive: -15.6%
CCCCCn1c(=O)[nH]c2cc(C(=O)NCCN(C)CCCC)ccc2c1=O,"inconclusive: 0.447 µM [inhibitor, full curve, poor fit]",–
CCC(NC(=O)Nc1cc(Cl)ccc1OC)c1c(-n2cccc2)sc2c1CCN(C)C2 (centres undefined),"inconclusive: 89.1 µM [inhibitor, partial curve, poor fit]",–
COc1ccc(CSC2=C(C#N)C(=O)NC3(CCCCC3)S2)cc1,"inconclusive: 79.4 µM [inhibitor, partial curve, poor fit]",–
CCOc1ccc(-c2c(C)nn3c(C)c(C(=O)NCc4ccc(Cl)cc4)cnc23)cc1OCC,–,inactive: -12.3%
COc1ccc(N/C=C2\C(=O)CCc3c2oc2cc(Cl)c(O)c(Cl)c32)cc1,–,inactive: -18%
CC1CCN(c2nc3c(-c4cccc(Br)c4)nnn3c3ccccc23)CC1,–,inactive: -17.8%
O=C(/C=C/c1ccco1)Oc1ccc(C(=S)N2CCOCC2)cc1,"inconclusive: 0.251 µM [inhibitor, full curve, poor fit]",–
COc1ccc(OCCn2nnc3sc4c(c3c2=O)CCC(C(C)(C)C)C4)cc1 (centres undefined),"inconclusive: 1.78 µM [inhibitor, full curve, poor fit]",–
CC(c1ccccc1C(=O)O)c1cc(F)cc2ccccc12 (centres undefined),–,inactive: -1.76%
O=C(O)c1ccc(N/N=C/c2cccc3nccnc23)cc1,–,inactive: -21.2%
COc1cc2c3c(c1)C(C)CC(C)(C)N3C(=O)C2=O (centres undefined),"inconclusive: 39.8 µM [inhibitor, partial curve, poor fit]",–
CCN(CC)CCCNC(=S)N1CCN(c2nc3ccccc3n2CC)CC1,–,inactive: -13.4%
CCC(Sc1nc2ccccc2c2nc(CCn3c(C)nc4ccccc43)nn12)C(=O)Nc1ccc(F)cc1 (centres undefined),–,inactive: -11.1%
COc1ccc(C(=O)c2nccc3cc(OC)c(OC)cc23)cc1OC,active: 14.1 µM,–
